# Results of single-concentration screens

Values are the deposited “Percent Effect”, in %. The record does not define 0% and 100%; most values in the screen are far below 50% and negative numbers occur (in some assays of this library far below -100). This is an unselected part of the compounds tested. Two or more numbers in one place are separate tests of the same structure; such repeats can differ widely. A dash means the value is not listed here; it may have been measured.

A: 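Whole-parasite assay of Trypanosoma brucei over 72 hours; the read-out is not stated. Tested at 30 µM. Higher reads as stronger inhibition (inferred: compounds with an IC50 in retests scored well above the rest). Values scatter widely below zero; nearly all retest evidence comes from the higher of the two concentrations used. Of about 64,000 compounds tested this way, about 940 (1.5%) reached 50% or more in at least one test.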
B: 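Cell assay of Leishmania donovani living inside macrophages; the read-out is not stated. Concentration: 30 µM. Direction is inferred from retests: higher values go with stronger inhibition. Of about 69,000 compounds tested this way, about 1,000 (1.5%) reached 50% or more in at least one test.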

* O=C(O)C(F)(F)F.O=C(O)C(F)(F)F.c1c(CN2CCCC2)nc2n1CCN(CC1CC1)C2 | A: -54.05%; B: 0.213%
* Cl.Cl.Cn1cc(C(=O)NCc2cncc3c2CCNC3)cn1 | A: -15.82%; B: -13.46%
* NC(=O)C(NC(=O)c1ccc(NC2CC2)nc1)c1ccccc1 (centres unmarked) | A: -15.04%; B: 20.01%
* CN(C)C(=O)CN1CCC2(CC1)CC(=O)c1ccc3ccccc3c1O2 | A: -10.87%; B: 36.93%
* Cc1c(CN2CCCC2(C)C(=O)NC2CCCC2)cnn1C (centres unmarked) | B: 27.28%
* Cc1noc(C)c1CN1CCCC2(C1)CN(Cc1nccn1C)CCO2.O=C(O)C(F)(F)F.O=C(O)C(F)(F)F (centres unmarked) | A: -10.73%; B: 11.51%
* CN1CCN(C)C2(CCN(C(=O)CC(F)(F)F)CC2)C1=O | A: -11.39%; B: 32.48%
* Cc1ccccc1-n1cc(C2=CCN(CCn3cc[nH]c3=O)CC2)cn1 | A: 9.654%; B: 48.9%
* CCN1CCN(Cc2c(-c3ccco3)[nH]c3ncccc23)CC1 | A: -18.59%; B: 7.084% and 8.593%
* CC(C)NC(=O)NCCn1nc(C(F)(F)F)n(C)c1=O | A: -0.8087%; B: 31.03%
* CC(C)c1nc(C2CCCN(c3cnc4ccccc4n3)C2)no1 (centres unmarked) | A: -201.5%; B: -42.65%
* O=C1CCCN1Cc1ncn2c1CN(C(=O)NC1CCCC1)CCC2 | A: -10.87%; B: -5.197%
* c1cc(CN2CCCC3(CCN(CC4CCCO4)CC3)C2)n[nH]1 (centres unmarked) | A: -11.1%; B: 47.58%
* NC(=O)NCC(=O)N1CCCC(OCc2cccnc2)C1 (centres unmarked) | A: -86.17%; B: 15.73%
* Cn1nc(CN2CCCCC2)c2c1CN(C(=O)Nc1cccc(F)c1)C2 | B: -4.425%
* CC(=O)NCC(=O)N1C[C@@H](C)[C@@]2(CCN(c3ccsc3)C2=O)C1 | A: -271.1%; B: 10.55%
* COc1cc(OC)cc(C(=O)Nc2ncnc3c2CCC3)c1 | A: -11.65%; B: -14.4%
* CC(=O)c1c(F)cccc1NCC(O)C(C)(C)C (centres unmarked) | A: 1.075%; B: 22% and 29.18%
* Cc1oncc1C(=O)N1CCc2ncnc(-c3cnn(C)c3)c2CC1.O=C(O)C(F)(F)F | A: -41.27%; B: -1.256%
* CCCC1CCN(C(=O)c2coc(COc3ccc(OC)cc3)n2)C1 (centres unmarked) | A: -11.51%; B: -12.56%
* CCOCC(=O)N1C[C@@H](NC(C)=O)[C@H](c2ccc(OC)cc2)C1 | A: -1.358%; B: 21.36%
* C[C@@H]1CN(C(=O)CCN2CCCC2)CC[C@@]1(O)C1CCOCC1 | A: 1.632%; B: 3.064%
* CN(CCc1cn[nH]c1)C(=O)C(c1ccc(F)cc1)N(C)C (centres unmarked) | A: -7.293%; B: 12.18%
* CN(Cc1ccco1)Cc1ccccc1CNC(=O)c1cnccn1 | A: -19.35%; B: 16.56%
* CNC(=O)CN1CCC(CN(C)Cc2ccncc2Cl)CC1 | A: -11.35%; B: 0.7963%
* CNC(=O)CS(=O)(=O)Cc1coc(-c2cccc(F)c2)n1 | A: 0.66%; B: 8.69%
* CNS(=O)(=O)c1ccc(CN2CCCC2c2ccc(F)cc2)cc1 (centres unmarked) | A: -8.359%; B: 0.01941%
* Cc1nnc(NC(=O)CN2CCc3nn(C)c(=O)cc3C2)s1 | B: 3.596%
* CC(C)Oc1ncccc1CNC(=O)N1CCC(n2cccc2)CC1 | A: -9.321%; B: -7.004%
* Cc1noc(C)c1CNC(=O)NCCC(=O)N1CCCc2ccccc21 | A: -47.61%; B: 10.54%
* O=C(c1ccccc1F)N1CCCC1Cn1c(=O)oc2ccccc21 (centres unmarked) | A: -7.342%; B: 17.52%
* Oc1cc(C2CCCN(Cc3cccs3)C2)nc(-c2ccccn2)n1 (centres unmarked) | A: 100.2%; B: -4.858%
* Cc1cccc(CNC[C@H]2Cn3cc(-c4ccccc4)nc3CO2)n1 | A: -3.137%; B: 10.06%
* COc1c(CNC2CCN(c3ncccn3)CC2)c(C(C)C)nn1C | A: -13.05%; B: 11.94%
* CN(C)c1cc2c(nn1)CCN(C(=O)C1CCc3ccccc31)C2 (centres unmarked) | A: -46.05%; B: 15.74%
* CC(C)c1nccn1C1CCCN(C(=O)c2ccc3[nH]cnc3c2)C1 (centres unmarked) | A: -0.918%; B: 4.343%
* Cc1ccc(-c2nc(CNC(C)Cn3cccn3)cs2)o1 (centres unmarked) | A: 3.262%; B: 33.38%
* CCn1ccnc1CN1CCCC(CO)(Cc2cccc(Cl)c2)C1 (centres unmarked) | A: 109.3%; B: 42.74%

5 of the entries, repeated:

| SMILES | A | B |
|---|---|---|
| `Cc1noc(C)c1CNC(=O)NCCC(=O)N1CCCc2ccccc21` | -47.61% | 10.54% |
| `CCCC1CCN(C(=O)c2coc(COc3ccc(OC)cc3)n2)C1` (centres unmarked) | -11.51% | -12.56% |
| `CCn1ccnc1CN1CCCC(CO)(Cc2cccc(Cl)c2)C1` (centres unmarked) | 109.3% | 42.74% |
| `Cc1nnc(NC(=O)CN2CCc3nn(C)c(=O)cc3C2)s1` | - | 3.596% |
| `CNC(=O)CS(=O)(=O)Cc1coc(-c2cccc(F)c2)n1` | 0.66% | 8.69% |

Measurements from “University of Dundee, Small-Polar-MMV Screening Library” (2021), ChEMBL document CHEMBL3988442.